Results from doi:10.1101/108068.
Read-outs that look alike come from different tables or passages of the source. These are yes or no findings as the source states them, for the method shown. Binding seen in cells or lysates may run through a third protein. Some entries that bind do so weakly or less than the wild type. Tags and fused reporters may be left off the sequences shown.

Protein sequences, listed by entry. Tags and fused reporters are not part of them.
UniProt P25694, whole entry: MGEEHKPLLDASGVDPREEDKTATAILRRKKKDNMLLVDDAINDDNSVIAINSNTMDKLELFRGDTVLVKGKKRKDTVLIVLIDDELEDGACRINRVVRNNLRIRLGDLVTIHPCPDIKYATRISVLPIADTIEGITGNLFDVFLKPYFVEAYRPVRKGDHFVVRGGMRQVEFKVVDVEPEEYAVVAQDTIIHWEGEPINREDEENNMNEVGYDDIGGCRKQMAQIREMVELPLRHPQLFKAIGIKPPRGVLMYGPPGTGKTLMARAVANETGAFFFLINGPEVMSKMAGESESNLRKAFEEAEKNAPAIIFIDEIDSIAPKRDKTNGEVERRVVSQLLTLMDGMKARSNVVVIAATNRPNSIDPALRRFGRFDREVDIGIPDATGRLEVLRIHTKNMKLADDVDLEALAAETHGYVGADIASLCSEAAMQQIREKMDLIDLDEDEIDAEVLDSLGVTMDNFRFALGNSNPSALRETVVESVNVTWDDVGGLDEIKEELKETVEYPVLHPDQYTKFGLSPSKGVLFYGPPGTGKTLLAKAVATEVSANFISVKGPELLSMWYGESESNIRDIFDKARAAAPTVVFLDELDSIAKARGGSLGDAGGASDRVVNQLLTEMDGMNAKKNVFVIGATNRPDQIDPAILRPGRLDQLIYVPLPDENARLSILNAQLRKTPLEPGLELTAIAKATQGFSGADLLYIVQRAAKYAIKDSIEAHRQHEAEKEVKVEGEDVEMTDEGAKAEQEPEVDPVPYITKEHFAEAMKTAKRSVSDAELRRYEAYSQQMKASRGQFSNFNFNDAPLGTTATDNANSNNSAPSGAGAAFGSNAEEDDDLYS

Legend:
Experiment in all cases: co-IP
[1] = molecular target: T1, FLAG-tagged full-length Ubp12 (S. cerevisiae) (UniProt P39538)
T1 sequence: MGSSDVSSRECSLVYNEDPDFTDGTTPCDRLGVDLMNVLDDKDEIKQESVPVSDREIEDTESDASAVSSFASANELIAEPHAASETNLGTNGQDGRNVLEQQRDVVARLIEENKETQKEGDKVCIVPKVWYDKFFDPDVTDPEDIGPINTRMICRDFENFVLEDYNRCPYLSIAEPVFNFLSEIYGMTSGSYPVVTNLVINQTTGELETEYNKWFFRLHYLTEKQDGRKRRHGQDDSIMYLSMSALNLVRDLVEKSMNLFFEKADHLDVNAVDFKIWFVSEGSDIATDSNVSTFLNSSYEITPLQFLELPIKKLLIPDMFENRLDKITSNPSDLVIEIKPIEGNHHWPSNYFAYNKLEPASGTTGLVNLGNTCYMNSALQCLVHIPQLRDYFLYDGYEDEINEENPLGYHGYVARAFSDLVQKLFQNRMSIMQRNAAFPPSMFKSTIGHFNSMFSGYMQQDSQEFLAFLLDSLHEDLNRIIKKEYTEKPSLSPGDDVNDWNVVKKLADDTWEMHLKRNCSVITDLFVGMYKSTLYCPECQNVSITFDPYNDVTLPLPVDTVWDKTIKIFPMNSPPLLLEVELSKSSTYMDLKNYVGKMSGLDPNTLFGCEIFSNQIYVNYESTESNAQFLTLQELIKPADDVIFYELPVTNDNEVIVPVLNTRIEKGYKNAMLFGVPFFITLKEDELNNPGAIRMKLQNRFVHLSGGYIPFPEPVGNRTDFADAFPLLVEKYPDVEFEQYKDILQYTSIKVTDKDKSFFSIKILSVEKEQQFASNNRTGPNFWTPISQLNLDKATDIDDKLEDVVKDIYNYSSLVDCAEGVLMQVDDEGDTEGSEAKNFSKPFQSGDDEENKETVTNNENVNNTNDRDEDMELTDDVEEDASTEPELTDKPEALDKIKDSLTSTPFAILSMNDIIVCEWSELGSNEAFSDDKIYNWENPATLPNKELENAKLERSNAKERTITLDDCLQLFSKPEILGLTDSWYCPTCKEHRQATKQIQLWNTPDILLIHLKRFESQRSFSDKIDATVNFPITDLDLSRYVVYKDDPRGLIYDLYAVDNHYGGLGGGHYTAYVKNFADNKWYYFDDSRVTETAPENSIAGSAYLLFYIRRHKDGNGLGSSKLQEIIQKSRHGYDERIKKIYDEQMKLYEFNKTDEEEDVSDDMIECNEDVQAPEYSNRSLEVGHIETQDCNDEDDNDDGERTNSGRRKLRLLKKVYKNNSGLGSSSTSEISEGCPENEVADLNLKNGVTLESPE

[2] = molecular target: Cdc48 (S. cerevisiae (endogenous in yeast)) (UniProt P25694)
[3] = molecular target: T2, Rad23 (endogenous) (S. cerevisiae (endogenous in yeast)) (UniProt P32628)
T2 sequence: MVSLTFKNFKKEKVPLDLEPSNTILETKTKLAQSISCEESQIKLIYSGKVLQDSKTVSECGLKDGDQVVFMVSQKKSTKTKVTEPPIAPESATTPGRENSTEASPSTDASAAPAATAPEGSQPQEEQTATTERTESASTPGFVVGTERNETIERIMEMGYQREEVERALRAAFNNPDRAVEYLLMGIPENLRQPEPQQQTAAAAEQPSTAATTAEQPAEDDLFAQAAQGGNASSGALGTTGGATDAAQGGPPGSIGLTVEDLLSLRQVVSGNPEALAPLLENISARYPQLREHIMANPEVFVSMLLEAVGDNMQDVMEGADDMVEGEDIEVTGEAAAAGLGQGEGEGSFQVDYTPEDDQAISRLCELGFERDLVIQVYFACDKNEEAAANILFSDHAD

[4] = molecular target: T3, full-length Rad23 expressed from a low-copy plasmid (S. cerevisiae) (UniProt P32628)
T3 sequence: T2 sequence

[5] = molecular target: T1, FLAG-tagged full-length Ubp12 (S. cerevisiae); remark: listed apart in the source

## Cdc48 (from UniProt P25694 1-835)
[1]
  binding: binds

B1: HA-tagged Ubp12 (Ubp12^6HA) expressed from the endogenous promoter (enzyme, UniProt P39538 1-1254)
chain: T1 sequence
[2]
  binding: binds
[3]
  binding: binds
[4]
  binding: binds

B2: Rad23 (endogenous) (protein, UniProt P32628 1-398)
chain: T2 sequence
[5]
  binding: binds
